In publication PMC9463443:
No constants are given. Whether binding was seen depends on the method and setting. Some binding calls cover weakened binding; strength is not graded here. Values belong to the substance of their own block, whether it stands above or below them.

By UniProt entry, the sequences of proteins in these tests, tags left out.
UniProt Q96BT3: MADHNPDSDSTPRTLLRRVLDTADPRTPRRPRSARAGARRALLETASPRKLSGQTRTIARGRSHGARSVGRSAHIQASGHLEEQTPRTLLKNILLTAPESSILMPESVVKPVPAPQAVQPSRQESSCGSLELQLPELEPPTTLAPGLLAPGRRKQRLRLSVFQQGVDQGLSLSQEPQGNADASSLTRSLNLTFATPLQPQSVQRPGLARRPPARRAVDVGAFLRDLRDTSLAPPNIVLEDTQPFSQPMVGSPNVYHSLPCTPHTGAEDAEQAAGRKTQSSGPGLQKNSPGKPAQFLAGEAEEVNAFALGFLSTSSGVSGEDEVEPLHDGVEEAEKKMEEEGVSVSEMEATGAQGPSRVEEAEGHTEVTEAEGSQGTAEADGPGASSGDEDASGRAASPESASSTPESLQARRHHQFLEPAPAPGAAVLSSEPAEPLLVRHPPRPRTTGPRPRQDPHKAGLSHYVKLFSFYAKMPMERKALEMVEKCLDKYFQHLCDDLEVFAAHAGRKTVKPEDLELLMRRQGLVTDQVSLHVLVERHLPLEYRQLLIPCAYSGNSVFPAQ
UniProt Q96H22: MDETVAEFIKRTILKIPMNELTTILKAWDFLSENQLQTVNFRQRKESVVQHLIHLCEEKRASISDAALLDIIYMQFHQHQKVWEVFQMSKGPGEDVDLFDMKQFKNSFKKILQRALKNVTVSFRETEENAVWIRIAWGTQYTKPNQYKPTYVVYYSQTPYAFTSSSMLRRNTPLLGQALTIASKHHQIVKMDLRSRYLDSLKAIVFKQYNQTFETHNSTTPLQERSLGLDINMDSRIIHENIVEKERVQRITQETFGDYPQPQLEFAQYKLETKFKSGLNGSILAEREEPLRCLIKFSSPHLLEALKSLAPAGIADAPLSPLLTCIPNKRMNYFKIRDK
UniProt Q92674: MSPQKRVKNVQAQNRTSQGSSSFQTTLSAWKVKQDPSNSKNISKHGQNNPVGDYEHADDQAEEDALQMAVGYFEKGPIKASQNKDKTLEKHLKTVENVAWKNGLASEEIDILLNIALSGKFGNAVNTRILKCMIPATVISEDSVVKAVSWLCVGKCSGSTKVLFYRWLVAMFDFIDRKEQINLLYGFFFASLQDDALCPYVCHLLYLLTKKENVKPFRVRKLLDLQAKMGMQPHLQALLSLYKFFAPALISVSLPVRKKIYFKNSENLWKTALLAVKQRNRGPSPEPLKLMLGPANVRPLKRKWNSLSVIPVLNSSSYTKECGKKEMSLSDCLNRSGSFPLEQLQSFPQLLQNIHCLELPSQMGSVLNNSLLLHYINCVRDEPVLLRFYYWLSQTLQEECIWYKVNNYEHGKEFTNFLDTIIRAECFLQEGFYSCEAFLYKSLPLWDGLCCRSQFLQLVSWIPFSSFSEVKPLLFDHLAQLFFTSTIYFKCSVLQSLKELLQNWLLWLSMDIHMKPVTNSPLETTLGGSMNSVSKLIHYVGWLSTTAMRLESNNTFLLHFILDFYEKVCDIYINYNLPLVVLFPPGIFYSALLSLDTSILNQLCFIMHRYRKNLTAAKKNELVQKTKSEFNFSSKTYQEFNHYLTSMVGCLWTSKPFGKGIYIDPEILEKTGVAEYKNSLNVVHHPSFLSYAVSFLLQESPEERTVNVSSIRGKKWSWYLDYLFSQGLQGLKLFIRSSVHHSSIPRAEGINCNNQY
UniProt Q9BS16: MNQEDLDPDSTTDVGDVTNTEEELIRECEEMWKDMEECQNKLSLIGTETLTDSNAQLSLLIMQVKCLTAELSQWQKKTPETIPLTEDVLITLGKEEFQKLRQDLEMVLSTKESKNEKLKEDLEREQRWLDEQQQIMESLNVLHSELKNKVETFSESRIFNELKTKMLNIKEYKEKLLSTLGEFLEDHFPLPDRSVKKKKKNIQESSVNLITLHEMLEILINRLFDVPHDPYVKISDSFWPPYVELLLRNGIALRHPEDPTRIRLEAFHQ
UniProt Q9H3R5: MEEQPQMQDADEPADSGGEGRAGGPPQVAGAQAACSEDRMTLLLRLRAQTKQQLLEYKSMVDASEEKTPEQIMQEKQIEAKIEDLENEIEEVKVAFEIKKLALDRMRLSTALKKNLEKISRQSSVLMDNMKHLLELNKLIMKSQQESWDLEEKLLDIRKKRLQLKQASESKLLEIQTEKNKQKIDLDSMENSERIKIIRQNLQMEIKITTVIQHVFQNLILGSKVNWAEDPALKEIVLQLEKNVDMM
UniProt Q71F23: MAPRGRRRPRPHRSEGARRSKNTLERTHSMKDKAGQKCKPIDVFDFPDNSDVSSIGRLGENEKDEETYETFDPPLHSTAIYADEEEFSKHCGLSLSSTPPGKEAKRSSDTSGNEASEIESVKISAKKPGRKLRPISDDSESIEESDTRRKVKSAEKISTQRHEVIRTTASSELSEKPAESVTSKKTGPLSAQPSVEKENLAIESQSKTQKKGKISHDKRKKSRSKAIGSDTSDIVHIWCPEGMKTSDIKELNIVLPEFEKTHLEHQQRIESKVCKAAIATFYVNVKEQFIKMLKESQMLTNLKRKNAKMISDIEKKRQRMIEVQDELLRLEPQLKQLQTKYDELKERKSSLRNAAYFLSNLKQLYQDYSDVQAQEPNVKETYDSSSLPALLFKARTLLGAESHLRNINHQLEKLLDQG
UniProt Q9NSP4: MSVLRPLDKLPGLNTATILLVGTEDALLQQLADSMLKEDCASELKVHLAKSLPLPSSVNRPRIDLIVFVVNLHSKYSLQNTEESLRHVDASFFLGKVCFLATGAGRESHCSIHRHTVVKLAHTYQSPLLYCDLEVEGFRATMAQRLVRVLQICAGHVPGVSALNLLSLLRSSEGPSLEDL
UniProt Q7L2Z9: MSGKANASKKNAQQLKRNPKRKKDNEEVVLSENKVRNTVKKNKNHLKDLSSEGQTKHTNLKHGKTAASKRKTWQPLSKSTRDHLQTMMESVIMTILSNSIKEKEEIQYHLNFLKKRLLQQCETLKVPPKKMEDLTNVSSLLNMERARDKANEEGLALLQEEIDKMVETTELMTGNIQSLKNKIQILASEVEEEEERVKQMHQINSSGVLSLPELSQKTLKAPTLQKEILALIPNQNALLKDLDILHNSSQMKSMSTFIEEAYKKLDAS
UniProt Q5EE01: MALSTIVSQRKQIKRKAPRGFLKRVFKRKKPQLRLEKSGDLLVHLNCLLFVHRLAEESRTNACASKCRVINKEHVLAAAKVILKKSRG
UniProt Q8N0S6: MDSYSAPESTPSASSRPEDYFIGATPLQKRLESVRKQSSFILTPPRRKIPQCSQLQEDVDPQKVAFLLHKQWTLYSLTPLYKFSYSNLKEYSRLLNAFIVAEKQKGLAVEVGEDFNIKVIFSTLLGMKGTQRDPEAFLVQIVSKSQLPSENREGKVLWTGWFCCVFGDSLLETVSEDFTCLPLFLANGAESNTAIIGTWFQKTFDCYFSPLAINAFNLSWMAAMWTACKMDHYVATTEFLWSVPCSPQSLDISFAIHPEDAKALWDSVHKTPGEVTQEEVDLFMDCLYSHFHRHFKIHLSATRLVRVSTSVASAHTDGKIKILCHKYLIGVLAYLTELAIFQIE

What was measured:
Test in all cases: cryo-EM structure; CCAN reconstituted from purified sub-complexes with CENP-A nucleosome (147 bp Widom 601), purified on Superose 6 in 20 mM HEPES-Na pH 7.5, 300 mM NaCl, 0.5 mM TCEP, cross-linked with 5 mM BS3; 3.3 Å map; no particles with the nucleosome were seen; both purified
CENP-T (human) = CENP-T (human) (UniProt Q96BT3)
CENP-N (human) = CENP-N (human) (UniProt Q96H22)
CENP-I (human) = CENP-I (human) (UniProt Q92674)
CENP-K (human) = CENP-K (human) (UniProt Q9BS16)
CENP-H (human) = CENP-H (human) (UniProt Q9H3R5)
CENP-U (human) = CENP-U (human) (UniProt Q71F23)

Substance: CENP-M (from UniProt Q9NSP4 1-180)
binding (CENP-I (human)): binds
binding (CENP-K (human)): binds

Substance: CENP-I (from UniProt Q92674 1-756)
binding (CENP-H (human)): binds
binding (CENP-K (human)): binds

Substance: CENP-Q (from UniProt Q7L2Z9 1-268)
binding (CENP-U (human)): binds

Now from value to substance:

binding (CENP-T (human)): binds
Substance: CENP-W (from UniProt Q5EE01 1-88)

binding (CENP-N (human)): binds
Substance: CENP-L (from UniProt Q8N0S6 1-344) (other; other documents disagree on this pair)
